The target in test [1] is connexin 50 (Cx50), endogenous in primary chick lens cells (chicken (endogenous in primary chick lens cells)) (UniProt P36381). As to the kind of experiment: co-IP; as a1, but primary chick lens cells treated with 10 ng/mL TGF-β2 before lysis.
The target is the same in test [2]. Briefly: co-IP; primary chick lens cell lysate (100 mM NaCl, 15 mM EGTA, 15 mM EDTA, 1% NP-40, pH 8.5); IP with anti-Cx50 or anti-β-catenin antibody overnight at 4°C, protein A/G plus agarose beads; cells without TGF-β2.

Chains of the proteins cited; added tags and fusions are not shown. Residues count along the entry.
UniProt P36381: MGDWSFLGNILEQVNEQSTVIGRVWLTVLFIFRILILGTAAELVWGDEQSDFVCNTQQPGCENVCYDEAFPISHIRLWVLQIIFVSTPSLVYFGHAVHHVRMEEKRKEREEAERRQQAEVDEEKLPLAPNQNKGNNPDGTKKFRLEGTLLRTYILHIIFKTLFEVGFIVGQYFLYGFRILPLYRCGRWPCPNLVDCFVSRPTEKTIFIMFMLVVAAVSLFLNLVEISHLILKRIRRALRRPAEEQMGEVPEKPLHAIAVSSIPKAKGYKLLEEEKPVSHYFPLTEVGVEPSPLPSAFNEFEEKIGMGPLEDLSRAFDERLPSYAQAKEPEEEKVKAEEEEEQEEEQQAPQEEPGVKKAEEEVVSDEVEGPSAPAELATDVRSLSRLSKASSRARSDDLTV
UniProt P08641, residues 161-887: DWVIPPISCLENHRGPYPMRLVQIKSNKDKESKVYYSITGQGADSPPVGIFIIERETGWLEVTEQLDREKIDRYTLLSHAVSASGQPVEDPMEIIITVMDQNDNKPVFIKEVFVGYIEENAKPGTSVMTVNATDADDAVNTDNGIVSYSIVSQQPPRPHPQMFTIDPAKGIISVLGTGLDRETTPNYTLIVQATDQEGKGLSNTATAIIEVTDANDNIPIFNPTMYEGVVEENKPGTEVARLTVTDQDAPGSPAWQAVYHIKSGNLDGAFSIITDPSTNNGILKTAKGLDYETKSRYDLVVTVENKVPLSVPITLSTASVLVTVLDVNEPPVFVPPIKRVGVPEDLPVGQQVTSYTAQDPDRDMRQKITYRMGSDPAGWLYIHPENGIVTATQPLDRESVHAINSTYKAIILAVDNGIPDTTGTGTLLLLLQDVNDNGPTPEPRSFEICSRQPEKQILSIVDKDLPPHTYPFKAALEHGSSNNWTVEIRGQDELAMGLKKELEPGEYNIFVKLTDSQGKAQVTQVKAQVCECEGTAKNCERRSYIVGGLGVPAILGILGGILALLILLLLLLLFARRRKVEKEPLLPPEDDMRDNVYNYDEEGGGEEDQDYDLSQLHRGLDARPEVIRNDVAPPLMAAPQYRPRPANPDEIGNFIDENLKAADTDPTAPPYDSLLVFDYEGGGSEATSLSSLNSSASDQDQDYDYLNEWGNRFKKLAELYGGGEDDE

Results are given in words; binding and its absence hold for the method and conditions named. In cells and extracts the contact can be indirect. Some results given as binding are weak or reduced against the parent protein; the word gives no strength.

The results in this text go back to article PMC12676446.

As for “E-cadherin, endogenous in primary chick lens cells (from UniProt P08641 161-887)”, the binding result in test [1] is listed as “no binding (condition: cells treated with 10 ng/mL TGF-β2)”; in test [2] it was “binds”.
